PubChem BioAssay AID1671190 (National Center for Advancing Translational Sciences (NCATS), 2021)
Screen size: about 580,000 compounds; about 6,100 (1.1%) were called active. Inconclusive means that the source gave no clear call. Such entries were picked first, then a sample of the others. The call rests on the fitted dose curve; in most records, active means well fitted inhibition curve with a large enough effect; inconclusive means small, poorly fitted or top-dose-only effect, or another doubt; inactive means no such curve, though single readings can be large or run the other way. Potencies beside an inconclusive call are fits to weak or partial responses and may not hold up.

Protein sequences, listed by entry. Tags and fused reporters are not part of them. Lines headed by an entry give the natural chain unless they say otherwise; changes in a name come on top.
UniProt P18054: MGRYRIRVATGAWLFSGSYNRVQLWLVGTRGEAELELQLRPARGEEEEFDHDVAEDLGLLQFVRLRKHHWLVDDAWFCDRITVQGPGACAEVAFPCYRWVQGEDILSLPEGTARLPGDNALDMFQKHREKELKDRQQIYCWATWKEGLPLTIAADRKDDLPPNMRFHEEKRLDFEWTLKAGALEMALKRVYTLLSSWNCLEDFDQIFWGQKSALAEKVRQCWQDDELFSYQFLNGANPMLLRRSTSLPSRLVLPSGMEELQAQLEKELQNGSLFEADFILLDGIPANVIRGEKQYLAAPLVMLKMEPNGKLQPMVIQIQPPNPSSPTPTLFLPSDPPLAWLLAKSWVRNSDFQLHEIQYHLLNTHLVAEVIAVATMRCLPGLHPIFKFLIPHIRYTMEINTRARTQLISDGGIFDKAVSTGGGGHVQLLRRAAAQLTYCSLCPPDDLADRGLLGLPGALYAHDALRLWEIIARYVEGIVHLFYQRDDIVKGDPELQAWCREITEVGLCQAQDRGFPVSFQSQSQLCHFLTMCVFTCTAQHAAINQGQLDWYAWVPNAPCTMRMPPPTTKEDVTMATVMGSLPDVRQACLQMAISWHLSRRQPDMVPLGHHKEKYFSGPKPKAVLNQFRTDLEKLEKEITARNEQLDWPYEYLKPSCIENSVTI

Biological target: Polyunsaturated fatty acid lipoxygenase ALOX12 (Homo sapiens) (UniProt P18054)
Test: Primary qHTS assay for inhibitors of human arachidonate 12S-lipoxygenase (ALOX12): Round 2
Conditions: purified 12hLO, xylenol orange hydroperoxide absorbance; activity change, negative = inhibition: at 108 µM (top of the series) unless noted
Method in brief: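 Purified human 12hLO (150 nM final) in 25 mM Hepes, 0.01% Triton X-100, pH 7.0 was preincubated 15 min at room temperature with compound. Then 40 uM arachidonic acid was added, 30 min. Hydroperoxide was read by Fe-XO absorbance ratio 573/405 nm.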
On the % scale 0 is the no-effect control and ±100 the full control effect; potency means the concentration at half of the fitted maximal effect.

| Compound | Potency | activity change, negative = inhibition |
| --- | --- | --- |
| Cc1ccc(-c2cc(C(=O)O)c3cccc(Cl)c3n2)o1 | inconclusive: 50.1 µM [inhibitor, partial curve, poor fit] |  |
| CCCOC(=O)c1cc(NC(=O)c2cc(Br)ccc2OC)ccc1N1CCOCC1 | inconclusive: 126 µM [inhibitor, single point] |  |
| O=S(=O)(CCSc1nnc(-c2ccccc2)o1)c1ccc(Br)cc1 | inconclusive: 2 µM [inhibitor, full curve, poor fit] |  |
| CCC(=O)Nc1cccc(C2=NOC3(C2)C[C@@H](C(N)=O)N(C(=O)c2cc([N+](=O)[O-])cc([N+](=O)[O-])c2)C3)c1 (stereo partly specified) | inconclusive: 5.01 µM [inhibitor, full curve, poor fit] |  |
| CC(CCN1CCN(CCO)CC1)c1ccccc1 (stereo unspecified) | inconclusive: 0.398 µM [inhibitor, full curve] |  |
| CC/C=C\C/C=C\C/C=C\C/C=C\C/C=C\C/C=C\CCC(=O)O | inconclusive: 6.31 µM [inhibitor, full curve, poor fit] |  |
| Cc1c(C)[n+](=O)c2ccccc2n1[O-] | inconclusive: 28.2 µM [inhibitor, partial curve, poor fit] |  |
| Cc1ccc(OCCOCCN2CCCCC2)c([N+](=O)[O-])c1 | inconclusive: 1.78 µM [inhibitor, full curve] |  |
| Cc1cc(Br)cn2c(Cc3ccccc3C(F)(F)F)c(-c3cccc(Br)c3)nc12 | inconclusive: 50.1 µM [inhibitor, partial curve, poor fit] |  |
| COC(=O)Cc1nnn2c1[C@H](C)[C@H](c1ccccc1Br)OC[C@@H]2c1ccccc1 | inconclusive: 112 µM [inhibitor, single point] |  |
| COc1cc(S(=O)(=O)n2ccc(C)n2)c(C)cc1C |  | inactive: 13.6% |
| CCN(Cc1ccc(C)cc1)Cc1cc(=O)oc2ccc(OC)cc12 | inconclusive: 56.2 µM [inhibitor, partial curve, poor fit] |  |
| COc1cc(/C=N/NC(=O)CNC(=O)c2ccccc2)ccc1OC(=O)c1cccs1 | inconclusive: 2.51 µM [inhibitor, partial curve, poor fit] |  |
| O=C1CC(c2ccccc2)CN1Cc1ccccc1 (stereo unspecified) | inconclusive: 39.8 µM [inhibitor, single point] |  |
| C=CCN1C(=O)c2ccc(C(=O)OCC(=O)N3CCN(c4ccccc4)CC3)cc2C1=O | inconclusive: 56.2 µM [inhibitor, partial curve, poor fit] |  |
| CCCCn1c(-c2nonc2NC(=O)c2ccccc2Cl)nc2ccccc21 |  | inactive: 10.3% |
| CCOC(=O)c1c(NC(C)=O)sc2c(O)c(Br)cc(Br)c12 | inconclusive: 44.7 µM [inhibitor, partial curve, poor fit] |  |
| Cc1ccc(OCc2cc(C(=O)NC(C)Cc3cccc(C)n3)no2)cn1 (stereo unspecified) |  | inactive: -12.8% |
| CN(C)CCN(C/C=C/c1ccccc1)C/C=C/c1ccccc1 | inconclusive: 0.199 µM [inhibitor, full curve, poor fit] |  |
| CC1(C)Cc2c(C#N)c(SCC(=O)c3ccccc3)nc(N3CCOCC3)c2CO1 | inconclusive: 25.1 µM [inhibitor, partial curve, poor fit] |  |
| O=C(OCc1ccccc1[N+](=O)[O-])c1cnc2ccccc2c1C(F)(F)F | inconclusive: 0.562 µM [inhibitor, full curve, poor fit] |  |

Two of the compounds above, bar-delimited.
Compound | Potency | activity change, negative = inhibition
CCOC(=O)c1c(NC(C)=O)sc2c(O)c(Br)cc(Br)c12 | inconclusive: 44.7 µM [inhibitor, partial curve, poor fit] | 
Cc1ccc(OCc2cc(C(=O)NC(C)Cc3cccc(C)n3)no2)cn1 (stereo unspecified) |  | inactive: -12.8%

Next compounds:

| Compound | Potency | activity change, negative = inhibition |
| --- | --- | --- |
| COc1ccc(N=NC2=C(O)CC(C)(C)CC2=O)cc1 | inconclusive: 31.6 µM [inhibitor, partial curve, poor fit] |  |
| CCCC(=O)NC(=S)Nc1sc2c(c1C(N)=O)CCC2 | inconclusive: 35.5 µM [inhibitor, partial curve, poor fit] |  |
| CCCCCCn1c(N2CCN(c3ccccc3)CC2)nc2c1c(=O)[nH]c(=O)n2C | inactive |  |
| CSc1nc(-c2ccc(F)cc2)cc(=O)[nH]1 | inconclusive: 4.47 µM [inhibitor, full curve, poor fit] |  |
| CCN(CC)c1ccc(NC(=O)c2ccc3c(c2)OCO3)cc1 | inconclusive: 8.91 µM [inhibitor, full curve, poor fit] |  |
| Cc1cc(C)c(S(=O)(=O)N2CCN(C(=O)C3CCCO3)CC2)c(C)c1 (stereo unspecified) | inconclusive: 79.4 µM [inhibitor, single point] |  |
| COc1cc(C)cc(OC)c1OCc1ccc(C#N)cc1 |  | inactive: 4.8% |
| CN(c1ccccc1)c1ccc(C(=N)N)cc1 | inconclusive: 100 µM [inhibitor, single point] |  |
| O=C(c1ccco1)N1CCN(C(=O)C2CC(=O)N(c3ccc(Cl)cc3)C2)CC1 (stereo unspecified) | inconclusive: 89.1 µM [inhibitor, single point] |  |
| Cc1ccc(Nc2nc(NCCCc3ccccc3)nc3nccnc23)cc1 |  | inactive: -0.192% |
| Cc1ccc(-c2cc(C(=O)O)n[nH]2)o1 | inconclusive: 0.398 µM [inhibitor, full curve, poor fit] |  |
| C=CCn1c(SCc2nc(N)nc(N(C)C)n2)nnc1-c1cccnc1 | inconclusive: 20 µM [inhibitor, partial curve, poor fit] |  |
| Cc1ccc(NC(=O)CN2C(=O)NC(c3ccc(Cl)cc3)C3=C2COC3=O)c(C)c1 (stereo unspecified) | inconclusive: 10 µM [inhibitor, full curve] |  |
| Cc1cccc(C)c1-n1nnnc1SC(C(=O)N1CCCC1)c1ccccc1 (stereo unspecified) |  | inactive: -34.4% |
| CCOC(=O)N1CCN(C(=O)CN(c2cc(Cl)ccc2OC)S(C)(=O)=O)CC1 | inconclusive: 44.7 µM [inhibitor, single point] |  |
| CCNC(=O)N(C1CC1)C1CCOC2(CCN(C(=O)CC3CCCC3)CC2)C1 (stereo unspecified) |  | inactive: -9.69% |
| Cc1c(C(=O)NCC2CCCO2)oc2ccc(Br)cc12 (stereo unspecified) | inconclusive: 56.2 µM [inhibitor, partial curve, poor fit] |  |
| COCCn1c(C)cc(C(=O)CSc2nnc(C)s2)c1C |  | inactive: 5.6% |
| COc1ccc(NC(=O)c2c(C)oc3ccc(O)c(CN4CCCC4)c23)cc1Cl |  | inconclusive: -51.5% [inhibitor] |
| O=c1[nH]c(Cc2ccccn2)nc2scc(-c3ccccc3Cl)c12 | inconclusive: 12.6 µM [inhibitor, partial curve, poor fit] |  |
